Experimental data taken from the supplement of paper PMC10331698.
± gives the standard deviation of the averaged measurements. Small differences around the control level are noise.

Legend:
Experiment in all cases: level (log10 ratio to DMSO vehicle control); higher = higher biomarker level / cell amount than vehicle control
[1] = compound: C=C(C)C(=O)OCC(F)(F)C(F)(F)C(F)(F)F [2,2,3,3,4,4,4-Heptafluorobutyl methacrylate]; settings: 2200 nM; in DMSO
Protocol: (§1)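 BioMAP Diversity Plus panel of 12 human primary cell co-culture systems (3C, 4H, LPS, SAg, BT, BF4T, BE3C, CASM3C, HDF3CGF, KF3CT, MyoF, Mphg). Compounds were added 1 h before stimulation and left for 24 h (MyoF 48 h; BT 72 h for soluble read-outs or 6 d for IgG). Biomarkers were read by ELISA, cytotoxicity by SRB, PBMC viability and proliferation by Alamar Blue. Each well value was divided by the mean of 8 DMSO control wells on the same plate and log10 transformed; duplicate blinded samples were tested at 4 concentrations.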

[2] = compound: C=CC(=O)OCC(F)(F)C(F)(F)C(F)(F)C(F)(F)COC(=O)C=C [1H,1H,6H,6H-Perfluorohexane-1,6-diol diacrylate]; settings: 2200 nM; in DMSO
Protocol: as §1

[3] = compound: FC(F)(F)C(F)(F)C(F)(F)C(F)(F)C(F)(F)C(F)(F)C(F)(F)CCI [1-Iodo-1H,1H,2H,2H-perfluorononane]; settings: in DMSO
Protocol: as §1

[4] = compound: FC(F)(F)C(F)(F)C(F)(F)C(F)(F)C(F)(F)C(F)(F)C(F)(F)I [1-Iodopentadecafluoroheptane]; settings: in DMSO
Protocol: as §1

[5] = compound: FC(F)C(F)(F)COCC1CO1 [((2,2,3,3-Tetrafluoropropoxy)methyl)oxirane]; settings: 2200 nM; in DMSO
Protocol: as §1

[6] = compound: NC(=O)C(F)(F)C(F)(F)C(F)(F)C(F)(F)C(F)(F)C(F)(F)C(F)(F)F [Perfluorooctanamide]; settings: 2200 nM; in DMSO
Protocol: as §1

[7] = compound: O=C(O)C(F)(F)C(F)(F)C(F)(F)C(F)(F)C(F)(F)C(F)(F)C(F)(F)C(F)(F)C(F)(F)C(F)(F)F [Perfluoroundecanoic acid]; settings: in DMSO
Protocol: as §1

[8] = compound: O=C(O)C(F)(F)C(F)(F)C(F)(F)C(F)(F)C(F)(F)C(F)(F)C(F)(F)C(F)F [9-H-Perfluorononanoic acid]; settings: 2200 nM; in DMSO
Protocol: as §1

[9] = compound: O=C(O)C(F)(F)C(F)(F)C(F)(F)F [Perfluorobutanoic acid]; settings: 2200 nM; in DMSO
Protocol: as §1

[10] = compound: O=C(O)C(F)(F)C(F)(F)F [Perfluoropropanoic acid]; settings: 2200 nM; in DMSO
Protocol: as §1

[11] = compound: O=C(O)C(F)(F)C(F)(F)OC(F)(F)F [Perfluoro-3-methoxypropanoic acid]; settings: 2200 nM; in DMSO
Protocol: as §1

[12] = compound: O=C(O)C(F)(F)OC(F)(F)C(F)(F)OC(F)(F)C(=O)O [Perfluoro-3,6-dioxaoctane-1,8-dioic acid]; settings: 2200 nM; in DMSO
Protocol: as §1

[13] = compound: O=C(O)C(F)(F)OC(F)(F)C(F)(F)OC(F)(F)C(F)(F)C(F)(F)C(F)(F)F [Perfluoro-3,6-dioxadecanoic acid]; settings: 2200 nM; in DMSO
Protocol: as §1

[14] = compound: O=C(O)C=CC(F)(C(F)(F)F)C(F)(F)F [3-(Perfluoroisopropyl)-2-propenoic acid]; settings: in DMSO
Protocol: as §1

[15] = compound: O=P(O)(O)CCC(F)(F)C(F)(F)C(F)(F)C(F)(F)C(F)(F)C(F)(F)C(F)(F)C(F)(F)F [((Perfluorooctyl)ethyl)phosphonic acid]; settings: 2200 nM; in DMSO
Protocol: as §1

[16] = compound: O=S(=O)(Cl)C(F)(F)C(F)(F)C(F)(F)C(F)(F)C(F)(F)C(F)(F)C(F)(F)C(F)(F)F [Perfluoro-1-octanesulfonyl chloride]; settings: 2200 nM; in DMSO
Protocol: as §1

[17] = compound: OCC(F)(F)C(F)(F)C(F)(F)C(F)(F)C(F)(F)C(F)(F)C(F)(F)C(F)(F)C(F)(F)C(F)(F)C(F)(F)F [11:1 Fluorotelomer alcohol]; settings: in DMSO
Protocol: as §1

[18] = compound: OCCC(F)(F)C(F)(F)C(F)(F)C(F)(F)C(F)(F)C(F)(F)C(F)(F)C(F)(F)F [8:2 Fluorotelomer alcohol]; settings: 2200 nM; in DMSO
Protocol: as §1

Test System: lMphg:M-CSF
- level (log10) [1]: -0.001 ± 0.061
- level (log10) [2]: -0.021 ± 0.0042
- level (log10) ([3]; 740 nM): -0.0115 ± 0.042
- level (log10) ([3]; 2200 nM): -0.029 ± 0.035
- level (log10) ([3]; 6700 nM): -0.023 ± 0.037
- level (log10) ([3]; 20000 nM): -0.015 ± 0.0014
- level (log10) ([4]; 740 nM): 0.0235 ± 0.016
- level (log10) ([4]; 2200 nM): 0.0065 ± 0.015
- level (log10) ([4]; 6700 nM): -0.0015 ± 0.042
- level (log10) ([4]; 20000 nM): 0.015 ± 0.0014
- level (log10) [5]: -0.0195 ± 0.0092
- level (log10) [6]: 0.02 ± 0.033
- level (log10) ([7]; 740 nM): 0.0145 ± 0.0035
- level (log10) ([7]; 2200 nM): 0.0135 ± 0.025
- level (log10) [8]: -0.006 ± 0.021
- level (log10) [9]: 0.01 ± 0.017
- level (log10) [10]: -0.02 ± 0.0014
- level (log10) [11]: 0.01 ± 0.024
- level (log10) [12]: 0.012 ± 0.023
- level (log10) [13]: -0.019 ± 0.03
- level (log10) ([14]; 2200 nM): -0.009 ± 0.02
- level (log10) ([14]; 6700 nM): -0.0105 ± 0.0064
- level (log10) ([14]; 20000 nM): -0.021 ± 0.014
- level (log10) ([14]; 60000 nM): -0.015 ± 0.025
- level (log10) [15]: -0.01 ± 0.024
- level (log10) [16]: -0.023 ± 0.018
- level (log10) ([17]; 370 nM): -0.0015 ± 0.018
- level (log10) ([17]; 1100 nM): -0.0045 ± 0.005
- level (log10) ([17]; 3300 nM): -0.0195 ± 0.0078
- level (log10) ([17]; 10000 nM): -0.0735 ± 0.016
- level (log10) [18]: -0.007 ± 0.028

Test System: lMphg:SRB
- level (log10) [1]: -0.002 ± 0.0014
- level (log10) [2]: -0.017 ± 0.011
- level (log10) ([3]; 740 nM): 0.0005 ± 0.0021
- level (log10) ([3]; 2200 nM): -0.0055 ± 0.00071
- level (log10) ([3]; 6700 nM): -0.002 ± 0.0071
- level (log10) ([3]; 20000 nM): 0.0065 ± 0.005
- level (log10) ([4]; 740 nM): -0.0005 ± 0.0092
- level (log10) ([4]; 2200 nM): 0.0045 ± 0.0035
- level (log10) ([4]; 6700 nM): -0.01 ± 0.0014
- level (log10) ([4]; 20000 nM): -0.0015 ± 0.0021
- level (log10) [5]: -0.0175 ± 0.005
- level (log10) [6]: -0.0085 ± 0.005
- level (log10) ([7]; 740 nM): 0.0015 ± 0.016
- level (log10) ([7]; 2200 nM): -0.001
- level (log10) [8]: 0.0075 ± 0.005
- level (log10) [9]: -0.013 ± 0.031
- level (log10) [10]: -0.015 ± 0.0071
- level (log10) [11]: -0.001 ± 0.0014
- level (log10) [12]: 0.005 ± 0.013
- level (log10) [13]: -0.0225 ± 0.035
- level (log10) ([14]; 2200 nM): -0.0105 ± 0.0035
- level (log10) ([14]; 6700 nM): -0.017 ± 0.0085
- level (log10) ([14]; 20000 nM): -0.012 ± 0.0099
- level (log10) ([14]; 60000 nM): -0.0085 ± 0.012
- level (log10) [15]: 0.004 ± 0.0071
- level (log10) [16]: 0.01 ± 0.0085
- level (log10) ([17]; 370 nM): -0.001 ± 0.0028
- level (log10) ([17]; 1100 nM): 0.0045 ± 0.00071
- level (log10) ([17]; 3300 nM): 0.001
- level (log10) ([17]; 10000 nM): -0.0205 ± 0.005
- level (log10) [18]: -0.001 ± 0.018

Test System: lMphg:SRB-Mphg
- level (log10) [1]: 0.014 ± 0.02
- level (log10) [2]: -0.0515 ± 0.011
- level (log10) ([3]; 740 nM): 0.0285 ± 0.036
- level (log10) ([3]; 2200 nM): 0.0255 ± 0.012
- level (log10) ([3]; 6700 nM): 0.001 ± 0.03
- level (log10) ([3]; 20000 nM): 0.001 ± 0.011
- level (log10) ([4]; 740 nM): -0.0025 ± 0.022
- level (log10) ([4]; 2200 nM): -0.0105 ± 0.026
- level (log10) ([4]; 6700 nM): 0.005 ± 0.018
- level (log10) ([4]; 20000 nM): 0.0125 ± 0.011
- level (log10) [5]: -0.0015 ± 0.015
- level (log10) [6]: 0.0025 ± 0.029
- level (log10) ([7]; 740 nM): 0.003 ± 0.0014
- level (log10) ([7]; 2200 nM): -0.0065 ± 0.00071
- level (log10) [8]: 0.045 ± 0.0014
- level (log10) [9]: 0.051 ± 0.0057
- level (log10) [10]: -0.014 ± 0.072
- level (log10) [11]: 0 ± 0.018
- level (log10) [12]: -0.0055 ± 0.0035
- level (log10) [13]: -0.006 ± 0.011
- level (log10) ([14]; 2200 nM): 0.009 ± 0.014
- level (log10) ([14]; 6700 nM): 0.0005 ± 0.013
- level (log10) ([14]; 20000 nM): 0.004 ± 0.0085
- level (log10) ([14]; 60000 nM): 0.0075 ± 0.015
- level (log10) [15]: 0.0135 ± 0.0092
- level (log10) [16]: 0.0145 ± 0.032
- level (log10) ([17]; 370 nM): -0.003 ± 0.028
- level (log10) ([17]; 1100 nM): -0.039 ± 0.0014
- level (log10) ([17]; 3300 nM): -0.105 ± 0.0085
- level (log10) ([17]; 10000 nM): -0.205 ± 0.0085
- level (log10) [18]: 0.0005 ± 0.039

Test System: lMphg:sIL-10
- level (log10) [1]: 0.001 ± 0.0085
- level (log10) [2]: -0.0115 ± 0.0092
- level (log10) ([3]; 740 nM): -0.0445 ± 0.073
- level (log10) ([3]; 2200 nM): -0.0395 ± 0.025
- level (log10) ([3]; 6700 nM): -0.0685 ± 0.00071
- level (log10) ([3]; 20000 nM): -0.072 ± 0.021
- level (log10) ([4]; 740 nM): -0.0435 ± 0.025
- level (log10) ([4]; 2200 nM): -0.0455 ± 0.03
- level (log10) ([4]; 6700 nM): 0.004 ± 0.081
- level (log10) ([4]; 20000 nM): -0.0995 ± 0.021
- level (log10) [5]: -0.0155 ± 0.04
- level (log10) [6]: 0.0285 ± 0.04
- level (log10) ([7]; 740 nM): -0.022 ± 0.031
- level (log10) ([7]; 2200 nM): 0.0125 ± 0.098
- level (log10) [8]: -0.0175 ± 0.0064
- level (log10) [9]: 0.0485 ± 0.019
- level (log10) [10]: -0.0265 ± 0.057
- level (log10) [11]: -0.003 ± 0.044
- level (log10) [12]: -0.0565 ± 0.061
- level (log10) [13]: -0.0355 ± 0.0078
- level (log10) ([14]; 2200 nM): -0.003 ± 0.0071
- level (log10) ([14]; 6700 nM): -0.055 ± 0.064
- level (log10) ([14]; 20000 nM): -0.048 ± 0.017
- level (log10) ([14]; 60000 nM): -0.082 ± 0.0071
- level (log10) [15]: -0.007 ± 0.021
- level (log10) [16]: 0.0245 ± 0.11
- level (log10) ([17]; 370 nM): 0.015 ± 0.0085
- level (log10) ([17]; 1100 nM): -0.0255 ± 0.069
- level (log10) ([17]; 3300 nM): -0.0875 ± 0.066
- level (log10) ([17]; 10000 nM): -0.216 ± 0.082
- level (log10) [18]: -0.056 ± 0.0085
